# Record: PubChem BioAssay AID1224827 (NIAID, 2016)
# Screen: 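Retest primary hits on a TNF reporter with six siRNAs per gene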 (follow-up of hits)
# Cells: RAW264.7 G9 mouse macrophage reporter clone
# Reagent: single siRNA against mouse genes, 100 nM siRNA
# Time to read-out: siRNA for 2 days, then LPS about 16 h
# Challenge: bacterial lipopolysaccharide (LPS), 10 ng/ml, cells fixed after overnight (about 16 h) stimulation
# Measurement: 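TNF promoter reporter red fluorescence in nuclei, background subtracted, normalised per plate and to non-targeting control siRNA, as z-scores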
# Scale: TNF reporter z-score, mean and TNF reporter z-score: higher = stronger Tnf promoter reporter signal; gene median z, three same-vendor siRNAs: higher = stronger Tnf reporter signal for the gene
# Rule for the call: 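Active siRNA: replicate-mean z-score of 2 or more, or -2 or less; no calls for control wells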
# In all, the deposit lists about 3,800 reagents; below is a part drawn at random. About 2,200 of them (57%) count as active. 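Active means a strong reporter change in either direction; calls are per siRNA, not per gene; qiagen siRNAs gave weaker effects.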 Reagents against one gene are numbered here.
gene,reagent,"TNF reporter z-score, mean","gene median z, three same-vendor siRNAs","TNF reporter z-score, repeat 1","TNF reporter z-score, repeat 2",Outcome
Rai2 (retinoic acid induced 2),1,0.551,-0.0606,0.0982,1,inactive
Rai2 (retinoic acid induced 2),2,-0.245,-0.0606,-0.219,-0.27,inactive
Rai2 (retinoic acid induced 2),3,-0.341,-0.0606,0.169,-0.85,inactive
Rai2 (retinoic acid induced 2),4,2.72,-0.57,6.53,-1.1,active
Rai2 (retinoic acid induced 2),5,0.497,-0.57,1.03,-0.0392,inactive
Rai2 (retinoic acid induced 2),6,-3.7,-0.57,-4.37,-3.02,active
"Chaf1a (chromatin assembly factor 1, subunit A)",1,-0.9,-1.97,-2.49,0.689,inactive
"Chaf1a (chromatin assembly factor 1, subunit A)",2,-1.97,-1.97,-2.23,-1.72,inactive
"Chaf1a (chromatin assembly factor 1, subunit A)",3,-2.23,-1.97,-3.23,-1.22,active
"Chaf1a (chromatin assembly factor 1, subunit A)",4,2.74,-0.238,5.47,0.00732,active
"Chaf1a (chromatin assembly factor 1, subunit A)",5,1.42,-0.238,3.33,-0.483,inactive
"Chaf1a (chromatin assembly factor 1, subunit A)",6,-1.93,-0.238,-1.8,-2.07,inactive
Cks1b (CDC28 protein kinase 1b),1,-2.02,-2.99,-1.69,-2.34,active
Cks1b (CDC28 protein kinase 1b),2,-2.74,-2.99,-3.65,-1.83,active
Cks1b (CDC28 protein kinase 1b),3,-4.26,-2.99,-4.47,-4.05,active
Cks1b (CDC28 protein kinase 1b),4,3.47,-0.0647,6.7,0.246,active
Cks1b (CDC28 protein kinase 1b),5,2.04,-0.0647,4.45,-0.375,active
Cks1b (CDC28 protein kinase 1b),6,-1.76,-0.0647,-1.5,-2.02,inactive
Or4p18 (olfactory receptor family 4 subfamily P member 18),1,-1.93,-2.18,-2.59,-1.28,inactive
Or4p18 (olfactory receptor family 4 subfamily P member 18),2,-2.4,-2.18,-1.15,-3.65,active
Or4p18 (olfactory receptor family 4 subfamily P member 18),3,-2.25,-2.18,-1.77,-2.73,active
Or4p18 (olfactory receptor family 4 subfamily P member 18),4,4.7,-0.625,7.81,1.6,active
Or4p18 (olfactory receptor family 4 subfamily P member 18),5,-0.818,-0.625,-0.519,-1.12,inactive
Or4p18 (olfactory receptor family 4 subfamily P member 18),6,-1.19,-0.625,-0.731,-1.66,inactive
